Results on 22 compounds are retold here after PMC12040169 (PLOS Biology, 2025).

Some of the results follow.

This experiment deals with T1, CTL2-GFP (C. trachomatis L2/434/Bu, GFP-expressing).
T1 construct: L2/434/Bu, GFP-expressing
Also noted: species or system HeLa; Intracellular C. trachomatis growth in HeLa cells, bulk GFP fluorescence relative to DMSO. The following applies: bulk GFP, single well; 28.5 h, 10 µM; inhibitor.
As for `Oc1cc2cccnc2nc1-c1cccc(C(F)(F)F)c1` [CBK073704], the “% of control remaining” value was found to be 104.743%.

For the compound `OC(COc1ccc(Br)cc1)CN1CCCN(c2nc3ccc(Cl)cc3s2)CC1` (stereo not shown) [CBK074643], the “% of control remaining” value was found to be 16.3843%. For `CCOc1cccc(NC(=O)/C(C#N)=C\c2cc(OC)c(O)cc2Br)c1` [CBK263189] the value was 100%. As for `c1cncc(C2N3CCC4(CC3)c3[nH]c5ccccc5c3CCN24)c1` (stereo not shown) [CBK284430], the “% of control remaining” value amounted to 103.174%. Then `COc1ccc(C2=NN(c3ccc([N+](=O)[O-])cc3)C(=O)/C2=C/NCc2ccccn2)cc1` [CBK265276], with 125.219%. Turning to `C[C@@H](Nc1cncc(-c2cccs2)n1)c1ccccc1` [CBK065711], the “% of control remaining” value turned out to be 69.1395%.

For the compound `CCN(CC)C(=O)c1ccc2[nH]ccc2c1` [CBK149072], the “% of control remaining” value is recorded as 104.96%.

For the compound `CC(C)(CN(Cc1ccccc1)C(=O)/C=C/c1ccccc1)NC(=O)OC(C)(C)C` [CBK003266], the “% of control remaining” value was found to be 57.5996%. For `COc1ccc(NC(=S)N2CCN(C/C=C/c3ccccc3)CC2)cc1OC` [CBK266891] the value was 143.768%; for `CCn1cncc1CN1CC2CCCC(O)(c3ccc(F)cc3)C2C1` (stereo not shown) [CBK282119], 164.785%. Then `CCC(NC(=O)C1(Cn2ccnc2)CC1)c1ncccc1C` (stereo not shown) [CBK307046], with 113.87%.

Take `CN1CCCN(c2nccnc2-c2cccc(O)c2)CC1` [CBK088820]: the “% of control remaining” value was determined as 82.6506%.

For `Cc1ccccc1Sc1ncccc1C(F)(F)F` [CBK115231], the “% of control remaining” value is reported as 102.799%. Then `O=C(CCCn1cccn1)N1CCOC(c2ccc(Cl)c(Cl)c2)C1` (stereo not shown) [CBK304640], with 113.533%; and `C=CCn1cc(CN2CCc3c(nc(C)[nH]c3=O)C2)c2ccccc21` [CBK283992], with 91.2968%. With `Cc1ccc(-c2csc3ncn(Cc4ccccc4C)c(=O)c23)cc1C` [CBK099921], the “% of control remaining” value came out at 96.4227%. Regarding `O=C(NCCCNC(=O)c1ccccn1)c1ccc(Cl)cc1` [CBK269193], the “% of control remaining” value worked out at 178%. Turning to `Cc1cc(C)cc(NC(=O)CSc2ncnc3c2oc2ccccc23)c1` [CBK287394], the “% of control remaining” value was 162.344%.

As for `CC(NC(=O)CSc1nnc(-c2ccc(Cl)cc2)n1-c1ccccc1)c1ccccc1` (stereo not shown) [CBK264993], the “% of control remaining” value came to 118.265%. For `Cc1nc2ccc(C(=O)NCC3CCCN(C(C)C)C3)cc2[nH]1` (stereo not shown) [CBK282475] the value was 145.129%. For `Cc1cc(=O)oc2cc(NC(=S)NNC(=O)C3CCN(Cc4ccc(F)cc4Cl)CC3)ccc12` [CBK266953] the value was 146.084%; for `CCOC(=O)c1c(NC(=S)NC(=O)c2cccc(Cl)c2)sc2c1CCCC2` [CBK264045], 100%.
